PubChem BioAssay AID1224826 – NIAID – 2016
Assay: 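Knock-downs that raise or lower Tnf reporter signal after endotoxin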 (primary screen). System: RAW264.7 G9 macrophages from mouse bearing reporters for p65 (GFP) and the Tnf promoter (mCherry). Reagent: siRNA pool against mouse genes, 100 nM. Duration: 16 h of LPS stimulation, after 2 days of siRNA transfection. Challenge: bacterial lipopolysaccharide (Salmonella minnesota R595), 10 ng/ml. Detection: 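Nuclear mCherry signal of the Tnf promoter reporter measured by imaging after background removal, scaled to each plate median and turned into robust z-scores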. Reading the numbers: Tnf reporter robust z-score: higher = stronger Tnf promoter reporter signal after LPS; Tnf reporter intensity: higher = stronger Tnf promoter reporter signal. Call rule: 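Called active when robust z-score is at most -1.3, matching the median of the Tlr4 knock-down control, or over 3; control wells and wells with under 50 cells never active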. Meaning of the calls: active = Tnf reporter clearly lowered or raised; inactive = no clear change in Tnf reporter.
Shown is one part, drawn at random, of about 17,000 reagents tested. About 1,110 of them (6.6%) were called active. 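Active means lowered or raised reporter signal; replicate intensities are raw and not normalised per plate.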 Reagents against one gene are numbered here. No sequences are given here.

Target gene,reagent no.,Tnf reporter robust z-score,fewer than 50 cells in well,"Tnf reporter intensity, replicate 1","Tnf reporter intensity, replicate 2",Call
Adcyap1r1,1,0.68,enough cells in well,255,381,inactive
Or51k2,1,0.54,enough cells in well,139,110,inactive
Ly86,1,1.12,enough cells in well,246,214,inactive
Kif17,1,-0.46,enough cells in well,192,134,inactive
Dnajc16,1,-0.87,enough cells in well,124,44.4,inactive
Casq2,1,-0.28,enough cells in well,125,156,inactive
Gpr34,1,-0.53,enough cells in well,161,270,inactive
Zswim2,1,,fewer than 50 cells per well; well left out of calls,0,56.6,inactive
Pgm2,1,-1.32,enough cells in well,88.7,67.2,active
Or5g27,1,-0.11,enough cells in well,150,120,inactive
Zfand2b,1,-0.09,enough cells in well,265,71.9,inactive
Kansl3,1,0.42,enough cells in well,184,83,inactive
Kcnmb4,1,-0.49,enough cells in well,176,98.5,inactive
Echdc3,1,0.08,enough cells in well,182,125,inactive
Chrac1,1,0.88,enough cells in well,315,274,inactive
Cyp2d22,1,-0.13,enough cells in well,219,200,inactive
Psmd3,1,,fewer than 50 cells per well; well left out of calls,12.6,206,inactive
Akr7a5,1,0.43,enough cells in well,191,196,inactive
Hrg,1,-0.55,enough cells in well,215,134,inactive
Pitrm1,1,-0.68,enough cells in well,192,146,inactive
Stambp,1,1.32,enough cells in well,210,82.9,inactive
Rab3il1,1,-0.09,enough cells in well,284,210,inactive
Rab3il1,2,2.28,enough cells in well,276,333,inactive
Nkd1,1,1.04,enough cells in well,228,224,inactive

2 of these entries, set out differently:
Rab3il1 #1: Tnf reporter robust z-score = -0.09; fewer than 50 cells in well = enough cells in well; Tnf reporter intensity, replicate 1 = 284; Tnf reporter intensity, replicate 2 = 210; Call = inactive
Rab3il1 #2: Tnf reporter robust z-score = 2.28; fewer than 50 cells in well = enough cells in well; Tnf reporter intensity, replicate 1 = 276; Tnf reporter intensity, replicate 2 = 333; Call = inactive
